The values that follow are results of earlier work, collected in patent US12473332B2, “Modified peptides and associated methods of use” (Advanced Technologies For Novel Therapeutics, LLC, priority 2019, dated 2025).

Molecules are shown by their SMILES.

One series concerns Neuroblastoma cells. The following applies: literature; read-out: IC-50 on neuroblastoma cells; cited from earlier work.
A further series deals with glioblastoma cells. Particulars: literature; read-out: IC-50 on glioblastoma cells; cited from earlier work.

With `Cc1ccc(NC(=O)c2ccc(CN3CCN(C)CC3)cc2)cc1Nc1nccc(-c2cccnc2)n1` [Gleevec, Imatinib], the results for the IC50 in the series with Neuroblastoma cells and with glioblastoma cells were 9 to 13 µM and 15.7 to 18.7 µM, respectively.
